In US20260001871A1, “TRIAZOLE DERIVATIVES AS MODULATORS OF MAS-RELATED G-PROTEIN RECEPTOR D” (ESCIENT PHARMACEUTICALS, INC., priority 2022, published 2026):
The structures given here were assigned with low confidence; some may be wrong.

By UniProt entry, the sequences of proteins in these tests, tags left out.
UniProt Q8TDS7, whole entry: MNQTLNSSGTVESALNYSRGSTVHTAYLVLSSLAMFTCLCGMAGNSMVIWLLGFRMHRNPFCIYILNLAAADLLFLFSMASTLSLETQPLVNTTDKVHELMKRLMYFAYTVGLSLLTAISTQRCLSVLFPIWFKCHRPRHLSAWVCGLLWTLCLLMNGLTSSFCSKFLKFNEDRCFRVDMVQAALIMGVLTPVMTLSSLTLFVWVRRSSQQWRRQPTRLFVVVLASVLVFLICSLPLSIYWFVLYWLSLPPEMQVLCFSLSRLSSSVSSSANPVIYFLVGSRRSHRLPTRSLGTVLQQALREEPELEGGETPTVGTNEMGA

These compounds were tested against human MRGPRD (Homo sapiens, UniProt Q8TDS7) (assay: MRGPRD antagonist activity, IP-One HTRF assay in CHO cells stably expressing human MRGPRD (versus 100 μM β-Alanine agonist)). Conditions: read-out: mRGPRD Antagonist Activity.
Protocol: Chinese Hamster Ovary (CHO) cells stably expressing human MRGPRD (Eurofins, San Diego CA) were plated in a 384-well plate at 20,000 cells per well in 12 μL of Optimem (Fisher Scientific 11-058-021). Plates were kept in the incubator at 37° C. overnight. Antagonists were solubilized at a concentration of 10 mM in DMSO, and the agonists were solubilized to stock concentrations of either 50 mM in H2O (β-Alanine) or 10 mM in DMSO (all others) and then diluted in assay buffer (final concentrations of 5.7 mM Tris-HCl, 43 mM NaCl, 50 mM LiCl, pH=8). The concentration of DMSO was normalized across the plate. Antagonists were added to the plate using a Tecan D300 Digital Dispenser at nanoliter/picoliter volumes and 2 μL of agonists in assay buffer were added to each well for a final assay volume of 14 μL. Plates were covered and incubated for 1 h at 37° C. and then for 1 h at room temperature. IP-1 standards and HTRF detection reagents were added according to an IP-One—Gq Kit purchased from Cisbio (part number 621PAPEJ) and incubated in the dark for 1 h at room temperature. Assay plates were read on either a Molecular Devices SpectraMax iD5 plate reader or a BMG ClarioStar plate reader. The HTRF ratio was calculated form the raw data and graphed using GraphPad Prism to calculate IC50 values. Data are expressed as average IC50 values and average percent antagonism calculated as a percent of the maximum efficacy response. For these studies, the variability of the data was assessed by determining the standard error of mean (SEM).
The activity ranges are denoted as follows: “+++++” denotes antagonist activity<100 nM; “++++” denotes antagonist activity between 100 and 500 nM; “+++” denotes activity between 500 and 1000 nM; “++” denotes activity between 1000 and 3000 nM; and “+” denotes activity>3000 nM.

Compound | IC50 [nM]
O=C(Nc1ccncc1)c1nnn(-c2ccc(-c3cnn(CC4CC4)c3)cc2)c1C1CC1 | 100 to 500
COc1ncccc1C1(NC(=O)c2nnn(-c3ccc(-c4ccc(C#N)cc4)cc3)c2C2CC2)CC1 | 1000 to 3000
Cn1cncc1-c1ccc(-n2nnc(C(=O)Nc3ccncc3)c2C2CC2)cc1 | 500 to 1000
